Reference: PMC10298087

Chains of the proteins cited; added tags and fusions are not shown.
UniProt Q13263: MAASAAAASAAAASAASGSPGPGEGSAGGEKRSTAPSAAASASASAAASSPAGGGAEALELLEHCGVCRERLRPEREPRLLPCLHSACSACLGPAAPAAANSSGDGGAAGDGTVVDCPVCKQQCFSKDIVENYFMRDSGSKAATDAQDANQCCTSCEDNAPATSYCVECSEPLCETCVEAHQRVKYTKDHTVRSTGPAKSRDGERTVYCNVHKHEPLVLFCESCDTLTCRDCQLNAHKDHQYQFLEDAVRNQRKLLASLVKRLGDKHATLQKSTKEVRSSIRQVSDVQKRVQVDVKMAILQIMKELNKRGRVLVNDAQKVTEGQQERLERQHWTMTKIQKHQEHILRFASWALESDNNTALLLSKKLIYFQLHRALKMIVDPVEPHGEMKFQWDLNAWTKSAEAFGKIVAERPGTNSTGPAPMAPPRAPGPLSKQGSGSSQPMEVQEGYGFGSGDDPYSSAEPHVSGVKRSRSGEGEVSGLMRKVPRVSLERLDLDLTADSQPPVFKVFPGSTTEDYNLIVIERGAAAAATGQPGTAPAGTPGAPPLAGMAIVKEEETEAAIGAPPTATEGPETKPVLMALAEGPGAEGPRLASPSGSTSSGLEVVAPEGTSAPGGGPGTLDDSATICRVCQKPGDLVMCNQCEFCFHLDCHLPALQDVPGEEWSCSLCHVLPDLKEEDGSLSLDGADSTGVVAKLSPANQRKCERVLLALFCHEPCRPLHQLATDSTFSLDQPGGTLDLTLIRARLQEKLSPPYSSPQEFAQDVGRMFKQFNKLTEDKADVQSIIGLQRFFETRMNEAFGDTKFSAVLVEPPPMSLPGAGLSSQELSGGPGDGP
UniProt O43361: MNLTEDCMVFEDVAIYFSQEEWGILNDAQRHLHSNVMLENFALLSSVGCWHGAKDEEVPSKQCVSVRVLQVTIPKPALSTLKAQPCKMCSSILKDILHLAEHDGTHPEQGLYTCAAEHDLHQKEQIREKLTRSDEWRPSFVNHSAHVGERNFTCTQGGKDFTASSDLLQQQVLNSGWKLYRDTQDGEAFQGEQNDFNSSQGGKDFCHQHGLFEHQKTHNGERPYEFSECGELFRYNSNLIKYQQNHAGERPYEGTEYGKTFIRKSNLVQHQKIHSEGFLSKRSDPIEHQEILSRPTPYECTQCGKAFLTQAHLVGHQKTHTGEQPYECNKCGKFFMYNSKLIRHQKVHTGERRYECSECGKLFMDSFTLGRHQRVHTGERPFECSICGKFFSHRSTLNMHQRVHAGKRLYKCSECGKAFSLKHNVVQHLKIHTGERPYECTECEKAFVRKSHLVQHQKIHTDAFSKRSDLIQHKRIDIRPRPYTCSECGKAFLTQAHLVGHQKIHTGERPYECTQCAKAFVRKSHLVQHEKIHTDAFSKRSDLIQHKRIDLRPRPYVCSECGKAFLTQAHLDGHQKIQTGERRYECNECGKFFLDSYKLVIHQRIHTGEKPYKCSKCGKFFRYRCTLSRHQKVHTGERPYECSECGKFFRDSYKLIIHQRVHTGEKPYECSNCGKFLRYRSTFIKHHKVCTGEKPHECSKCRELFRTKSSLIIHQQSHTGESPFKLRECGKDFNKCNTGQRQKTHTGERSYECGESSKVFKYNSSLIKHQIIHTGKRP
UniProt Q96HQ0: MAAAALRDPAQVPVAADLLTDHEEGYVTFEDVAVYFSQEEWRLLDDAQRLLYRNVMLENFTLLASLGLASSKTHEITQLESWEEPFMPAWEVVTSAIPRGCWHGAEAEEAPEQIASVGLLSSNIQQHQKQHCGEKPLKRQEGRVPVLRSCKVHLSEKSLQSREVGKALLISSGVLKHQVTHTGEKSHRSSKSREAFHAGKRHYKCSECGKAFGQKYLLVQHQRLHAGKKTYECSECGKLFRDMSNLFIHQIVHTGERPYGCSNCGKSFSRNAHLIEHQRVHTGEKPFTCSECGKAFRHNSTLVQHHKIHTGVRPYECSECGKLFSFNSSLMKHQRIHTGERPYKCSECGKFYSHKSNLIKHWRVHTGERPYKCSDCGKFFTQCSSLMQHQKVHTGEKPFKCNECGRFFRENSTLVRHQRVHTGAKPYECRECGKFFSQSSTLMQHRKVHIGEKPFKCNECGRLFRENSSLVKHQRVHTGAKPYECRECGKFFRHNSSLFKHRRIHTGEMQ
UniProt A8K8V0: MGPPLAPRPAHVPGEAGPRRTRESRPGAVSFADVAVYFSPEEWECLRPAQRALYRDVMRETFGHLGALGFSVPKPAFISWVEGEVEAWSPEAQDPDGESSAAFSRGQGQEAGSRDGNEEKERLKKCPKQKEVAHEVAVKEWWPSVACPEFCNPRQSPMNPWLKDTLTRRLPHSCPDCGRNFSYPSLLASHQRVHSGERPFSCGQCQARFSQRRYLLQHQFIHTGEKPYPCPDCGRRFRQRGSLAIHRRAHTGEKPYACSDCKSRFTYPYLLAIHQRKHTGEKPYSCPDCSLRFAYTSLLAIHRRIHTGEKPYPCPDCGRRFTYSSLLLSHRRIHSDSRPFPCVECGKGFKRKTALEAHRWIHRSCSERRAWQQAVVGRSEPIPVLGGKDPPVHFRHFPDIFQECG
UniProt Q8N8J6: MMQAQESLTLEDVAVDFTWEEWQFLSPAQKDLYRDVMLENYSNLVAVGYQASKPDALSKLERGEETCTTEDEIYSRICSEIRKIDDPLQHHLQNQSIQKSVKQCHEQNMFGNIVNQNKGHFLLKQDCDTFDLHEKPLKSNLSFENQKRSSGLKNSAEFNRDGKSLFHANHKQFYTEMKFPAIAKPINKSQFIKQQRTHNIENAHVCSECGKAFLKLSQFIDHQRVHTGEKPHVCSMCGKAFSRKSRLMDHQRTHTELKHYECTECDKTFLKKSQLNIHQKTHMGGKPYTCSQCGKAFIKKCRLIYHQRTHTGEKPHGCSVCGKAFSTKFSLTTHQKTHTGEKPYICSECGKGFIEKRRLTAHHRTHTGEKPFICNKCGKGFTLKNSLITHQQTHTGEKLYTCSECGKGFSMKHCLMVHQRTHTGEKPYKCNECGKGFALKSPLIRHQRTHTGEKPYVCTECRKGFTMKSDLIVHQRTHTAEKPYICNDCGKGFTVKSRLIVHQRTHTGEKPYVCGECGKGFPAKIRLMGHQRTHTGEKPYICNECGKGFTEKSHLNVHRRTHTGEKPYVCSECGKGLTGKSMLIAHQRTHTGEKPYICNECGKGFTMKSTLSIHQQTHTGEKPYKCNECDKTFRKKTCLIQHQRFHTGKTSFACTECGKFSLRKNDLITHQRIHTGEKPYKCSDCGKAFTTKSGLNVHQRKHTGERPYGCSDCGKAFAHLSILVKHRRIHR
UniProt Q2M3W8: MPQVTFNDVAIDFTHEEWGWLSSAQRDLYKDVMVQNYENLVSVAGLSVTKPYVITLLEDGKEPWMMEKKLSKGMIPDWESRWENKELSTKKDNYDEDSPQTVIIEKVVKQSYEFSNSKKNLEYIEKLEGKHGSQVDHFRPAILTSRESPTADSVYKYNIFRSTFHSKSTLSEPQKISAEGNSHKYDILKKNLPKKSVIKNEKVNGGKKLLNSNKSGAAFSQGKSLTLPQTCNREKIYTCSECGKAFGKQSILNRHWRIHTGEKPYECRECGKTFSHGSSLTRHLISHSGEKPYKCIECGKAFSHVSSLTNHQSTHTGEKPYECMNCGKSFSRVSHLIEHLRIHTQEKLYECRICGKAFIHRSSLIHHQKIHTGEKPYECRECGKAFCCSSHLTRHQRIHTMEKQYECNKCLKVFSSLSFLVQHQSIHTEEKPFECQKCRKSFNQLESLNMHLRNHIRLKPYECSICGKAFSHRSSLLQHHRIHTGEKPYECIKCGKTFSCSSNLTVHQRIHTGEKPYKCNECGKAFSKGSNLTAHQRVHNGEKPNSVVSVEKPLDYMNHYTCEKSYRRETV
UniProt Q92616: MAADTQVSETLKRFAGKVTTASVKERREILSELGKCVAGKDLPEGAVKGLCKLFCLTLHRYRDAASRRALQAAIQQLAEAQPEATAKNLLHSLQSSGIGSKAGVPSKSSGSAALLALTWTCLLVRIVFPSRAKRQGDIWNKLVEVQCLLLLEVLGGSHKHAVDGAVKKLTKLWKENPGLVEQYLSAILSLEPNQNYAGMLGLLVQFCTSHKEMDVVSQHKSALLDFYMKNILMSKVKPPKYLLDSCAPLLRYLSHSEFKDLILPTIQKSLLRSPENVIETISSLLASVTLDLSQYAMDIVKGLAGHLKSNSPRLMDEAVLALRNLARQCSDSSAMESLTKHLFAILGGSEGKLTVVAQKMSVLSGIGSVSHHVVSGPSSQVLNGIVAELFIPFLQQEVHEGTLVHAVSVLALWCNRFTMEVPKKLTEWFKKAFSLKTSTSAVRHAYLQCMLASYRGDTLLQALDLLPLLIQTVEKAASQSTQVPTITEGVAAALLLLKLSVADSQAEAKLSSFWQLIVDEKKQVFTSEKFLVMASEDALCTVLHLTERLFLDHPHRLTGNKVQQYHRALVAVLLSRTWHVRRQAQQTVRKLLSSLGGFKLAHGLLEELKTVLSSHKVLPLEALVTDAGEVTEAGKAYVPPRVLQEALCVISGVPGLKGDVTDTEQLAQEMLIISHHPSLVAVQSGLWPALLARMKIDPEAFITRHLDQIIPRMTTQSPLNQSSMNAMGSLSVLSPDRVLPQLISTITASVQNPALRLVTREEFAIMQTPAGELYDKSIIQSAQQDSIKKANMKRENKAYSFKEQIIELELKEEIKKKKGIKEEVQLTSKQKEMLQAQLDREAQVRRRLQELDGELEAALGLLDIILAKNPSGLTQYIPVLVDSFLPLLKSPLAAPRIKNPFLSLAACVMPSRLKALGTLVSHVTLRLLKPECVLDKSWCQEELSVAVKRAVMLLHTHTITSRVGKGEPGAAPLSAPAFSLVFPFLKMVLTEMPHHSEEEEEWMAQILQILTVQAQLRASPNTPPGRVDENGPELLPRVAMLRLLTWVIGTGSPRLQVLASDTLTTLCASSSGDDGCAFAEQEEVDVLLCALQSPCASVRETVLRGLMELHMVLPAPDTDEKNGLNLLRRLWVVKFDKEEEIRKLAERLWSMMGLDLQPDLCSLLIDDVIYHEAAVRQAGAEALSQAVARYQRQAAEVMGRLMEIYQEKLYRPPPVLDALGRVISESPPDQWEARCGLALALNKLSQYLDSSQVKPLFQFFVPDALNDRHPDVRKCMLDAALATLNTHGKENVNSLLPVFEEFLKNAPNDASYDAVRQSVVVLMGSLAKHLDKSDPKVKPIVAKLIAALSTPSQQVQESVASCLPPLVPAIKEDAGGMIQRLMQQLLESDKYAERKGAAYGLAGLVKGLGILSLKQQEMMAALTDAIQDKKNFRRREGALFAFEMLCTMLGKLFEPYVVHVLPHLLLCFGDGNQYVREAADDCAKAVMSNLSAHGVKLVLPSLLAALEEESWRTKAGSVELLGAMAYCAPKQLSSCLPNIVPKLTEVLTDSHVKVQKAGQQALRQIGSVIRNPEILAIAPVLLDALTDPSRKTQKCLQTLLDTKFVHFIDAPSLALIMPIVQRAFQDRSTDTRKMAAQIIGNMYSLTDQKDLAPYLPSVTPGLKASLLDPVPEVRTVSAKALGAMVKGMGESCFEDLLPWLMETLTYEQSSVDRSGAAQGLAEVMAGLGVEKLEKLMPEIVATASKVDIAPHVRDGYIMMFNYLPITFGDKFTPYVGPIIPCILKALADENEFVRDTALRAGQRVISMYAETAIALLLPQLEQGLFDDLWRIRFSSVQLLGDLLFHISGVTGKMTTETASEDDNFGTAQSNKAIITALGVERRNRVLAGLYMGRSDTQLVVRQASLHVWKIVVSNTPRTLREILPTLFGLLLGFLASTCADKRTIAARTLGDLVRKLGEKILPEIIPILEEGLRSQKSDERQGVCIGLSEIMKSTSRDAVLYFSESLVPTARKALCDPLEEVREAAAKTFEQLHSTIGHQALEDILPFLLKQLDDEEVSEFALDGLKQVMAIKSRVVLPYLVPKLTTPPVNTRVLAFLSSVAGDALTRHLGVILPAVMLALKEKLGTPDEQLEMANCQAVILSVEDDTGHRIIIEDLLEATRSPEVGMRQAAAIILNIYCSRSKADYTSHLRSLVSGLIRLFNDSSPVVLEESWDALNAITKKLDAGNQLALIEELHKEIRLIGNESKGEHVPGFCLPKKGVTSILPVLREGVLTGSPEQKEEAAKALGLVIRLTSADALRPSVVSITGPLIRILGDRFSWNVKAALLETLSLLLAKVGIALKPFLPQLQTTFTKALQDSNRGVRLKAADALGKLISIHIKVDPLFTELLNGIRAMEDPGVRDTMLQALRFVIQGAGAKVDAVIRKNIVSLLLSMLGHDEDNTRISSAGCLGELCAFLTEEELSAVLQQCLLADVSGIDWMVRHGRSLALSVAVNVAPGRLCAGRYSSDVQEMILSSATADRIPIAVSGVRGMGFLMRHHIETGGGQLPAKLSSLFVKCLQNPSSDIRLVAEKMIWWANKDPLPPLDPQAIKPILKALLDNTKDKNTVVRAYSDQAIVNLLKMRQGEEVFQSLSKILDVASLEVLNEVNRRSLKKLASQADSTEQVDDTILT

Biological target: wild-type TRIM28 (endogenous, K562 cells) (human (endogenous in K562)) (UniProt Q13263)
Assay: affinity purification with mass spectrometry; IP of endogenous TRIM28 or TRIM28-K304Q from K562 cells with anti-TRIM28-N-conjugated protein A beads; washed, eluted with the antibody-generating peptide; MS (LTQ-Orbitrap Velos, Mascot)

binding	Substance
binds	ZNF701 (from UniProt Q9NV72 1-531)
binds	ZNF721 (from UniProt Q8TF20 1-911)
binds	ZNF211 (from UniProt Q13398 1-564)
binds	ZNF324B (from UniProt Q6AW86 1-544)
binds	ZNF468 (from UniProt Q5VIY5 1-522)
binds	ZNF749 (from UniProt O43361 1-778)
binds	ZFP1 (from UniProt Q6P2D0 1-407)
binds	ZNF490 (from UniProt Q9ULM2 1-529)
binds	ZNF419 (from UniProt Q96HQ0 1-510)
binds	ZNF799 (from UniProt Q96GE5 1-643)
binds	ZNF624 (from UniProt Q9P2J8 1-865)
binds	ZNF785 (from UniProt A8K8V0 1-405)
binds	ZNF311 (from UniProt Q5JNZ3 1-666)
binds	ZNF789 (from UniProt Q5FWF6 1-425)
binds	ZNF354B (from UniProt Q96LW1 1-612)
binds	ZNF257 (from UniProt Q9Y2Q1 1-563)
binds	ZNF440 (from UniProt Q8IYI8 1-595)
binds	ZNF805 (from UniProt Q5CZA5 1-627)
binds	ZNF611 (from UniProt Q8N823 1-705)
binds	ZNF197 (from UniProt O14709 1-1029)
binds	ZKSC1 (from UniProt P17029 1-563)
binds	ZNF184 (from UniProt Q99676 1-751)
binds	ZNF554 (from UniProt Q86TJ5 1-538)
binds	ZNF480 (from UniProt Q8WV37 1-535)
binds	ZNF57 (from UniProt Q68EA5 1-555)

binding	Substance
binds	RBM7 (from UniProt Q9Y580 1-266)
binds	ZNF615 (from UniProt Q8N8J6 1-731)
binds	ZNF845 (from UniProt Q96IR2 1-970)
binds	ZNF707 (from UniProt Q96C28 1-371)
binds	ZNF718 (from UniProt Q3SXZ3 1-478)
binds	ZNF766 (from UniProt Q5HY98 1-468)
binds	ZNF587B (from UniProt E7ETH6 1-402)
binds	ZNF181 (from UniProt Q2M3W8 1-571)
binds	ZNF678 (from UniProt Q5SXM1 1-525)
binds	ZNF529 (from UniProt Q6P280 1-563)
binds	ZNF136 (from UniProt P52737 1-540)
binds	ZNF208 (from UniProt O43345 1-1280)
binds	ZNF780A (from UniProt O75290 1-641)
binds	ZNF383 (from UniProt Q8NA42 1-475)
binds	ZCCHC8 (from UniProt Q6NZY4 1-707)
binds	ZNF684 (from UniProt Q5T5D7 1-378)
binds	ZNF101 (from UniProt Q8IZC7 1-436)
binds	ZNF564 (from UniProt Q8TBZ8 1-553)
binds	ZNF107 (from UniProt Q9UII5 1-783)
binds	ZNF589 (from UniProt Q86UQ0 1-364)
binds	GCN1 (from UniProt Q92616 1-2671)
binds	ZNF7 (from UniProt P17097 1-686)
binds	EHMT1 (from UniProt Q9H9B1 1-1298)
binds	ZNF45 (from UniProt Q02386 1-682)
binds	ZNF555 (from UniProt Q8NEP9 1-628)

No constants are given. Whether binding was seen depends on the method and setting. Binding seen in cells or lysates may run through a third protein. Here binding means that the protein was enriched with, or labelled near, the bait; the list need not be complete.
